{"source": "PubChem BioAssay AID1224828 (NIAID, 2016)", "assay": "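Regulators linking TLR4 signalling to p65 nuclear translocation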 (primary screen)", "cell system": "mouse RAW264.7 G9 macrophage reporter cells (GFP-p65, Tnf promoter-mCherry)", "reagent": "siRNA pool against mouse genes, 100 nM", "duration": "2 days siRNA transfection, then 40 min LPS before fixation", "treatment": "LPS (Salmonella minnesota R595) at 10 ng/ml", "detection": "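Microscopy ratio of nuclear to perinuclear-ring GFP-p65 signal, scaled to the plate median; gene score is the average of two replicate robust z-scores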", "scale": "p65 translocation robust z-score: higher = more nuclear NF-kappaB p65 after LPS than the plate median; nuclear/cytoplasmic p65 ratio: higher = more nuclear NF-kappaB p65", "call rule": "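Active if robust z is above 3.3 (negative regulators) or below -1.56, the Tlr4 control median (positive regulators); activity score 50 or more; control wells not called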", "meaning of the calls": "active = hit (p65 shift raised or lowered); inactive = no clear change", "note": "Shown is an unselected part of about 17,000 deposited reagents. 762 of them (4.5%) count as active. 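Active calls include both raised and lowered p65 entry, mostly lowered; wells with fewer than 50 cells lack a z-score.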 Raw values are not corrected between plates. Entries without a mark were called inactive."}
{"gene knocked down": "Sipa1l3 (signal-induced proliferation-associated 1 like 3)", "nuclear/cytoplasmic p65 ratio, rep 1": 1.42, "nuclear/cytoplasmic p65 ratio, rep 2": 1.48, "low cell count flag": "fewer than 50 cells per well; well left out of scoring"}
{"gene knocked down": "Cic (capicua transcriptional repressor)", "p65 translocation robust z-score": -1.29, "nuclear/cytoplasmic p65 ratio, rep 1": 1.43, "nuclear/cytoplasmic p65 ratio, rep 2": 1.54, "low cell count flag": "enough cells to score"}
{"gene knocked down": "Arf3 (ARF GTPase 3)", "p65 translocation robust z-score": -0.45, "nuclear/cytoplasmic p65 ratio, rep 1": 1.52, "nuclear/cytoplasmic p65 ratio, rep 2": 1.58, "low cell count flag": "enough cells to score"}
{"gene knocked down": "D330050P16RIK", "p65 translocation robust z-score": 0.18, "nuclear/cytoplasmic p65 ratio, rep 1": 1.69, "nuclear/cytoplasmic p65 ratio, rep 2": 1.48, "low cell count flag": "enough cells to score"}
{"gene knocked down": "Grtp1 (GH regulated TBC protein 1)", "p65 translocation robust z-score": -0.42, "nuclear/cytoplasmic p65 ratio, rep 1": 1.67, "nuclear/cytoplasmic p65 ratio, rep 2": 1.4, "low cell count flag": "enough cells to score"}
{"gene knocked down": "Mier2 (MIER family member 2)", "p65 translocation robust z-score": -0.19, "nuclear/cytoplasmic p65 ratio, rep 1": 1.43, "nuclear/cytoplasmic p65 ratio, rep 2": 1.38, "low cell count flag": "enough cells to score"}
{"gene knocked down": "Hadha", "p65 translocation robust z-score": 1.09, "nuclear/cytoplasmic p65 ratio, rep 1": 1.53, "nuclear/cytoplasmic p65 ratio, rep 2": 1.53, "low cell count flag": "enough cells to score"}

Next part (2 carried over from the part before).
{"gene knocked down": "Mier2 (MIER family member 2)", "p65 translocation robust z-score": -0.19, "nuclear/cytoplasmic p65 ratio, rep 1": 1.43, "nuclear/cytoplasmic p65 ratio, rep 2": 1.38, "low cell count flag": "enough cells to score"}
{"gene knocked down": "Hadha", "p65 translocation robust z-score": 1.09, "nuclear/cytoplasmic p65 ratio, rep 1": 1.53, "nuclear/cytoplasmic p65 ratio, rep 2": 1.53, "low cell count flag": "enough cells to score"}
{"gene knocked down": "Abcf3 (ATP-binding cassette, sub-family F member 3)", "p65 translocation robust z-score": 0.9, "nuclear/cytoplasmic p65 ratio, rep 1": 1.68, "nuclear/cytoplasmic p65 ratio, rep 2": 1.88, "low cell count flag": "enough cells to score"}
{"gene knocked down": "Pms2 (PMS1 homolog2, mismatch repair system component)", "p65 translocation robust z-score": 0.24, "nuclear/cytoplasmic p65 ratio, rep 1": 1.53, "nuclear/cytoplasmic p65 ratio, rep 2": 1.44, "low cell count flag": "enough cells to score"}
{"gene knocked down": "Slc19a2", "p65 translocation robust z-score": 1.49, "nuclear/cytoplasmic p65 ratio, rep 1": 1.75, "nuclear/cytoplasmic p65 ratio, rep 2": 1.71, "low cell count flag": "enough cells to score"}
{"gene knocked down": "Cadm4 (cell adhesion molecule 4)", "p65 translocation robust z-score": "-1.65 (active)", "nuclear/cytoplasmic p65 ratio, rep 1": 1.33, "nuclear/cytoplasmic p65 ratio, rep 2": 1.2, "low cell count flag": "enough cells to score"}
{"gene knocked down": "Ctsh (cathepsin H)", "p65 translocation robust z-score": 0.36, "nuclear/cytoplasmic p65 ratio, rep 1": 1.59, "nuclear/cytoplasmic p65 ratio, rep 2": 1.37, "low cell count flag": "enough cells to score"}
